Some of the results follow. The data scatter; read single values as rough.
Compound: ClCC(=O)N[C@@H]1CCCc2ccccc12
Experiment: log2 mean competition ratio of IA-DTB cysteine labelling (DMSO/compound) (log2 ratio); higher = stronger cysteine engagement by compound
Settings: 50 µM; treatment time: 4 h; cell line lysate: HEK293T
Experimental: (§1)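 IA-DTB competitive cysteine chemoproteomics in HEK293T RIPA lysate. Lysates were treated with compound 29 or 30 at 50 or 200 µM for 4 h, then IA-DTB (500 µM, 1 h), trypsin-digested, NeutrAvidin-enriched and analysed by diaPASEF. Competition ratio = intensity DMSO / intensity compound (n=4 treated, n=64 DMSO); binding: mean log2 CR ≥ 1 and p ≤ 0.05 plus QC filters. Target is the cysteine site.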

By UniProt entry, the sequences of proteins in these tests, tags left out. Where a name states a change or a piece, a line headed by the entry shows the natural chain unless it says otherwise. Residues count along the entry.
UniProt Q99707: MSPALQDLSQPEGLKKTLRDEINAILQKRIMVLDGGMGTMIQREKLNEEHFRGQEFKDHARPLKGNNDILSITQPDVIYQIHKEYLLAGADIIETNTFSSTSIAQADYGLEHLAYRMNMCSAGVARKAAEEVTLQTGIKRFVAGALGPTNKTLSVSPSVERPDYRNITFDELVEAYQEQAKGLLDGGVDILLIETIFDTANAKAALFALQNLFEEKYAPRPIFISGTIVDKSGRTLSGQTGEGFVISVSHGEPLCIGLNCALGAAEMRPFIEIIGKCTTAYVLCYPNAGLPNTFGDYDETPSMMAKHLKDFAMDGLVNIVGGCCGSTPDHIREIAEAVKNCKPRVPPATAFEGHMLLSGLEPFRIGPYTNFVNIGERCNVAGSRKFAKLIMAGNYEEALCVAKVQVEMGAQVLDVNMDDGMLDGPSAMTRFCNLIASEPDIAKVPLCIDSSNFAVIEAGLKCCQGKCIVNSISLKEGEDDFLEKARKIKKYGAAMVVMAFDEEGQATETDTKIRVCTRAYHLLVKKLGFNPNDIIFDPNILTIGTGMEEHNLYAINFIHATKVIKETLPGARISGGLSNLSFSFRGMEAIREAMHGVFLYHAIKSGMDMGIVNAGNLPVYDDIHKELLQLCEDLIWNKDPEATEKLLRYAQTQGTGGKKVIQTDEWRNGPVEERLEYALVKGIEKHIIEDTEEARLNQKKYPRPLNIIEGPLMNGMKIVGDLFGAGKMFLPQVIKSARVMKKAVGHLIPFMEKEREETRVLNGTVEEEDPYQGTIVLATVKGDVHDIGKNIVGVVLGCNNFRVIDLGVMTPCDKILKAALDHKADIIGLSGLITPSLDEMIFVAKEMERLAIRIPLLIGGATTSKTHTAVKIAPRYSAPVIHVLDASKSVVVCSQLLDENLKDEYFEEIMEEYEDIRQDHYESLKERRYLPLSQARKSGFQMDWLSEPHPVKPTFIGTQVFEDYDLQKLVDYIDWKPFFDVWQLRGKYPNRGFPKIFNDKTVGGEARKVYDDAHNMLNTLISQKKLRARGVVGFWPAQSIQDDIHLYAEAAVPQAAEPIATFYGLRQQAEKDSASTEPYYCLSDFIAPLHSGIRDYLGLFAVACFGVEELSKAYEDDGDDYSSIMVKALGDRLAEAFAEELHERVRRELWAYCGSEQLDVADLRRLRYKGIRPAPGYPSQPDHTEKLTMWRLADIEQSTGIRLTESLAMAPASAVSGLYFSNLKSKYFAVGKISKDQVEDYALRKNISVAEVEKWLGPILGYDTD
UniProt P52701: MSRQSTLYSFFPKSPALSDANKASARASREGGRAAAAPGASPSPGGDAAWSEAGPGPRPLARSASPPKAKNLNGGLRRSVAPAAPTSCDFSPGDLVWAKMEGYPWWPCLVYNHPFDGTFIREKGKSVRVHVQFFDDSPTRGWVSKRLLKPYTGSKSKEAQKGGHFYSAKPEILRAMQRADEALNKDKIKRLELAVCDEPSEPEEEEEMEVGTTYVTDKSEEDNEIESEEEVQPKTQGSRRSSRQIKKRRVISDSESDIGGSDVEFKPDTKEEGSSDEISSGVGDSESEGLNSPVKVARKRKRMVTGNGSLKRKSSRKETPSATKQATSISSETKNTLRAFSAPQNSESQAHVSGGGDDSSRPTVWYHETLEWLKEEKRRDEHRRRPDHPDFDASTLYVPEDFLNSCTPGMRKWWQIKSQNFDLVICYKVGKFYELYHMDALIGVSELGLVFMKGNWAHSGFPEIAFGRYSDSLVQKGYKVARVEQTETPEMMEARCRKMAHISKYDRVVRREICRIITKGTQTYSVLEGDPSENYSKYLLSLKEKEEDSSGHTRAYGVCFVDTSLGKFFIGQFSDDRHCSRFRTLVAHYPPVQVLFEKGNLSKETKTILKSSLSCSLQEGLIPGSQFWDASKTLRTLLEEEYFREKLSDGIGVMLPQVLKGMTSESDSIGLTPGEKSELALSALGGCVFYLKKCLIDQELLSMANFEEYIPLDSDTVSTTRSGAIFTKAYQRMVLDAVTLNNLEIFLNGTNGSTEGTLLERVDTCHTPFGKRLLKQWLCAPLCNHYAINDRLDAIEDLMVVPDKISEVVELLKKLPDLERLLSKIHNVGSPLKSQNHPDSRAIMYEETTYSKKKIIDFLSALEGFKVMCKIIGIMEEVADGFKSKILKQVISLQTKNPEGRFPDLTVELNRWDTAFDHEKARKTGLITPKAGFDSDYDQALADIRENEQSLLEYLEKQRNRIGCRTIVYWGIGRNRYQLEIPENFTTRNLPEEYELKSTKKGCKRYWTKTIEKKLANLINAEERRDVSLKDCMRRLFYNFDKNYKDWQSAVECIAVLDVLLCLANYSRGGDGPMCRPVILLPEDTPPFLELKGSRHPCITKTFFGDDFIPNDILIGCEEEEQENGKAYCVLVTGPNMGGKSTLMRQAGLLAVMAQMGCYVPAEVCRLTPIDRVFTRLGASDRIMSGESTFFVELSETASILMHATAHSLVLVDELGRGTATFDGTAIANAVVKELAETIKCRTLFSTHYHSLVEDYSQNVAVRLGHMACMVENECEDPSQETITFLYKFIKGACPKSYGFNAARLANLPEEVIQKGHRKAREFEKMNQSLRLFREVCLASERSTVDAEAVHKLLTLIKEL
UniProt Q03426, 331-357: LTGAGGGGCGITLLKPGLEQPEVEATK
UniProt Q13615: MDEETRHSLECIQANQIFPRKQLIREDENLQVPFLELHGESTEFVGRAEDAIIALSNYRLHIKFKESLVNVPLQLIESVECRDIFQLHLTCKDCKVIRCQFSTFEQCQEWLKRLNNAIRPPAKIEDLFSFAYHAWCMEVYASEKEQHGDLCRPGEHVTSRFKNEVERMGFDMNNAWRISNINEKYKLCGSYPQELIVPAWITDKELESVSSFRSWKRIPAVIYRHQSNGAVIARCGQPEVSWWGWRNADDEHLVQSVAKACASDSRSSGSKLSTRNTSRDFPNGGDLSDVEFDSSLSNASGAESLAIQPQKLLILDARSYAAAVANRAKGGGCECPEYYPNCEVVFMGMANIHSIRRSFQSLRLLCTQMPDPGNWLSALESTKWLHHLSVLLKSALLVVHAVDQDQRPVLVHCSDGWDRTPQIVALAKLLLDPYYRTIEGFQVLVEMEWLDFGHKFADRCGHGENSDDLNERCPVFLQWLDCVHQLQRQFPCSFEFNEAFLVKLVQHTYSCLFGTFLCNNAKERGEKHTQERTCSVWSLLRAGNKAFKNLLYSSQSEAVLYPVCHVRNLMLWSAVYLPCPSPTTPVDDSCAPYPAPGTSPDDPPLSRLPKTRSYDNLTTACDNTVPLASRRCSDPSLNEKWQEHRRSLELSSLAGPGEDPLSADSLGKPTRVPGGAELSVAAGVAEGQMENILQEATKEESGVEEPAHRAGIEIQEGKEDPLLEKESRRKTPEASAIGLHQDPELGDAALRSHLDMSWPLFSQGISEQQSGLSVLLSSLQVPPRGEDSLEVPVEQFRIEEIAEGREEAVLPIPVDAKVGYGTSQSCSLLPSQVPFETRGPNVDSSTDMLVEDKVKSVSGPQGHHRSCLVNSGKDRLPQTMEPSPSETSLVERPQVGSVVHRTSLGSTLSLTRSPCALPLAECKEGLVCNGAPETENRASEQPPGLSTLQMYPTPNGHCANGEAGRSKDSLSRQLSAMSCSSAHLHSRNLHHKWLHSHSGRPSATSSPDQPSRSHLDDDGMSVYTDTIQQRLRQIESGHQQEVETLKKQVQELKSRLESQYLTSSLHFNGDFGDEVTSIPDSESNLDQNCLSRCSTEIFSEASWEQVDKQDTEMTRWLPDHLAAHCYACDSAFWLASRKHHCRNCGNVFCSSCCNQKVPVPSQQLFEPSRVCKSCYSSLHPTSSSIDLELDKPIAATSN
UniProt P10244: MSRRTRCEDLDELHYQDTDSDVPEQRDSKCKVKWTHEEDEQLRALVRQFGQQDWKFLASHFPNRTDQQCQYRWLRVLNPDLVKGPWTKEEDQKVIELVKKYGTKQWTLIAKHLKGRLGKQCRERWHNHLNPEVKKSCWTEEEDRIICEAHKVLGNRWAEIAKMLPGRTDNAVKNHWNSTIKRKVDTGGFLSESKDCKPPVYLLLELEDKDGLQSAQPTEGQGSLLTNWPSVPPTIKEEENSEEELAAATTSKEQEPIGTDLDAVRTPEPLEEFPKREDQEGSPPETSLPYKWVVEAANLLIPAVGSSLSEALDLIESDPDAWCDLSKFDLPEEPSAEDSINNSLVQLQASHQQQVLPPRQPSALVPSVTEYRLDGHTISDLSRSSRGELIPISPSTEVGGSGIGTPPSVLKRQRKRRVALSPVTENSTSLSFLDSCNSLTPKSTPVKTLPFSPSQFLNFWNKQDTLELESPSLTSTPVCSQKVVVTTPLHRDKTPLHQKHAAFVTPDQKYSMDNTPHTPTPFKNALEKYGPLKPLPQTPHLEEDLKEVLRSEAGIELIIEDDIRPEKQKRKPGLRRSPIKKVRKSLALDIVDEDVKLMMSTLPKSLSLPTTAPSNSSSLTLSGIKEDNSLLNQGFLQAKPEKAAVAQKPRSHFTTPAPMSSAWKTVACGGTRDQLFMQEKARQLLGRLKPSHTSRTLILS
UniProt Q9Y4B5: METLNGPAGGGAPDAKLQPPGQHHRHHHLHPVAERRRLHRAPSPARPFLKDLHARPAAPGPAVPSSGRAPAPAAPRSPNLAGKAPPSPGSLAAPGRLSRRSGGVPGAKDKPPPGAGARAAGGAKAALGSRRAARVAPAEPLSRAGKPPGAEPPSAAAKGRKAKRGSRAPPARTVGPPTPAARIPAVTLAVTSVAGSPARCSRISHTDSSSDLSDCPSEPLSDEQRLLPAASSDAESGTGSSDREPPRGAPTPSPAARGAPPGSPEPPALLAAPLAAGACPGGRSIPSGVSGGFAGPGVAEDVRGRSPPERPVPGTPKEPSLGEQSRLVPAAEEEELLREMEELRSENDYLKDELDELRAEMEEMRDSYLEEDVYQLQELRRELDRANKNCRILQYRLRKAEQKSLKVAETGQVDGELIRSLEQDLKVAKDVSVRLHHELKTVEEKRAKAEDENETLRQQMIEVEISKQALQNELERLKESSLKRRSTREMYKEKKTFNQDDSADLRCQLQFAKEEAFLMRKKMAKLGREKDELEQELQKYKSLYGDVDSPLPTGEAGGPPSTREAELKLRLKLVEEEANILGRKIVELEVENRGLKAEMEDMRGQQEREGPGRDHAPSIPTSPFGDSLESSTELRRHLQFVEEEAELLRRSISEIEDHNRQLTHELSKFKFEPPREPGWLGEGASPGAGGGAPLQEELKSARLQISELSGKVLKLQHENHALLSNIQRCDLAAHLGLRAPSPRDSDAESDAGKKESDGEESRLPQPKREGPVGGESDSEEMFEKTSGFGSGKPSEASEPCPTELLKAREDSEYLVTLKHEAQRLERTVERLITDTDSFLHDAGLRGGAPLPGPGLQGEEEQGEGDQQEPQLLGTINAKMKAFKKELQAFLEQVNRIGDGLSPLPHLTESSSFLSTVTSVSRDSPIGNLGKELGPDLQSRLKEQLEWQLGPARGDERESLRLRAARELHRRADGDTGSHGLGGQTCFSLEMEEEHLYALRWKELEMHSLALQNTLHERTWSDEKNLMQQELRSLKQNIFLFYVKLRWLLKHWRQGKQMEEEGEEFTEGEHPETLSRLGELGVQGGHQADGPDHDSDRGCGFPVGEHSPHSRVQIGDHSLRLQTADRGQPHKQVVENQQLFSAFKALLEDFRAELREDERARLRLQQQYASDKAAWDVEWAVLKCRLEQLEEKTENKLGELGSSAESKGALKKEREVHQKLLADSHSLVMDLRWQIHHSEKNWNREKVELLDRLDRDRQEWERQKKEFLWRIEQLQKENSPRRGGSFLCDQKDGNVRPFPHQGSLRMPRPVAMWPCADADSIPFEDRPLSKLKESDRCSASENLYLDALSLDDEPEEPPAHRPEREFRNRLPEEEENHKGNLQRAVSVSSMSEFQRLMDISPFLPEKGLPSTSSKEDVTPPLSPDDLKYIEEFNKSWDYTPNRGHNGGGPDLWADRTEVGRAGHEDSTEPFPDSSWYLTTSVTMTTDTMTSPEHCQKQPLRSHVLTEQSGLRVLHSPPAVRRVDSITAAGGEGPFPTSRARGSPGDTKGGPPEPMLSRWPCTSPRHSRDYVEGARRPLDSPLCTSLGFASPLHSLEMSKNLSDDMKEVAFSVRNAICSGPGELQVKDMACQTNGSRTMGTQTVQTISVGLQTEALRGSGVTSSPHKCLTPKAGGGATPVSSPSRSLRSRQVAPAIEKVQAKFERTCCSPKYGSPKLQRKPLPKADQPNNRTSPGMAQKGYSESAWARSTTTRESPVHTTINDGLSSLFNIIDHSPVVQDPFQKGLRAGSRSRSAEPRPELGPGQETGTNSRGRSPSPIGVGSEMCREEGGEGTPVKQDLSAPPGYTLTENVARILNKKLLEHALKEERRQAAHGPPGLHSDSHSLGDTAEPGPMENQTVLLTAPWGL

Row | Target | log2 mean competition ratio
1 | MYCBP2 C2951 (UniProt O75592) | 0.161
2 | NAA15 C721 | 0.141
3 | NAA20 C9 (UniProt P61599) | -0.195
4 | NAP1L1 C88 | -0.0331
5 | MSH3 C803 (UniProt P20585) | 0.0872
6 | MRPL38 C143 (UniProt Q96DV4) | 0.378
7 | MTR C378 (UniProt Q99707) | 0.0456
8 | NAA15 C309 | -0.0219
9 | MTFMT C365 (UniProt Q96DP5) | 0.0178
10 | MYCBP2 C2169 (UniProt O75592) | 0.371
11 | MYH10 C823 (UniProt P35580) | -0.0377
12 | MSH6 C579 (UniProt P52701) | 0.197
13 | NAPA C84 (UniProt P54920) | -0.165
14 | MYH9 C988 (UniProt P35579) | -0.32
15 | MRPL2 C213 (UniProt Q5T653) | 0.188
16 | MVK C339 (UniProt Q03426) | 0.447
17 | MTMR3 C632 (UniProt Q13615) | -0.0348
18 | MYBL2 C69 (UniProt P10244) | 0.132
19 | MSH6 C1129 (UniProt P52701) | 0.0896

Row | Target | log2 mean competition ratio
20 | MTMR1_(C170,C170,C176,C176) (UniProt Q13613) | -0.185
21 | MTMR1 C58 (UniProt Q13613) | -0.449
22 | MYCBP2 C2044 (UniProt O75592) | -0.2
23 | NADSYN1 C531 (UniProt Q6IA69) | -0.196
24 | MYCBP2 C1475 (UniProt O75592) | 0.182
25 | MYSM1 C169 (UniProt Q5VVJ2) | -0.144
26 | MTMR14 C429 (UniProt Q8NCE2) | -0.109
27 | MTCL1 C1628 (UniProt Q9Y4B5) | -0.0785
28 | MTBP C691 | 0.105
29 | MYO1B C103 (UniProt O43795) | -0.115
30 | MYO6 C610 (UniProt Q9UM54) | 0.0656
31 | MTG2 C206 (UniProt Q9H4K7) | 0.409
32 | NACC1 C416 (UniProt Q96RE7) | 0.195
33 | NAMPT C39 | -0.06
34 | MTARC2 C299 | -0.0141
35 | MRPL37 C153 (UniProt Q9BZE1) | 0.106
36 | MTHFSD C113 (UniProt Q2M296) | -0.0672
37 | MYO19 C678 (UniProt Q96H55) | -0.0238

Same assay, conditions: 200 µM; treatment time: 4 h; cell line lysate: HEK293T

Row | Target | log2 mean competition ratio
38 | MYCBP2 C2951 (UniProt O75592) | 0.103
39 | NAA15 C721 | -0.265
40 | NAA20 C9 (UniProt P61599) | -0.264
41 | NAP1L1 C88 | -0.292
42 | MSH3 C803 (UniProt P20585) | -0.125
43 | MRPL38 C143 (UniProt Q96DV4) | -0.337
44 | MTR C378 (UniProt Q99707) | 0.0619
45 | NAA15 C309 | -0.189
46 | MTFMT C365 (UniProt Q96DP5) | 0.527
47 | MYCBP2 C2169 (UniProt O75592) | -0.299
48 | MYH10 C823 (UniProt P35580) | -0.346
49 | MSH6 C579 (UniProt P52701) | -0.0249
50 | NAPA C84 (UniProt P54920) | -0.0775
51 | MYH9 C988 (UniProt P35579) | 0.112
52 | MRPL2 C213 (UniProt Q5T653) | 0.181
53 | MVK C339 (UniProt Q03426) | 0.0591
54 | MTMR3 C632 (UniProt Q13615) | 0.199
55 | MYBL2 C69 (UniProt P10244) | 0.306
56 | MSH6 C1129 (UniProt P52701) | -0.011

Row | Target | log2 mean competition ratio
57 | MTMR1_(C170,C170,C176,C176) (UniProt Q13613) | 0.0974
58 | MTMR1 C58 (UniProt Q13613) | 0.305
59 | MYCBP2 C2044 (UniProt O75592) | -0.126
60 | NADSYN1 C531 (UniProt Q6IA69) | -0.234
61 | MYCBP2 C1475 (UniProt O75592) | -0.00385
62 | MYSM1 C169 (UniProt Q5VVJ2) | 0.185
63 | MTMR14 C429 (UniProt Q8NCE2) | -0.152
64 | MTCL1 C1628 (UniProt Q9Y4B5) | 0.0454
65 | MTBP C691 | -0.195
66 | MYO1B C103 (UniProt O43795) | -0.202
67 | MYO6 C610 (UniProt Q9UM54) | 0.0435
68 | MTG2 C206 (UniProt Q9H4K7) | 0.0428
69 | NACC1 C416 (UniProt Q96RE7) | 0.23
70 | NAMPT C39 | -0.132
71 | MTARC2 C299 | -0.0349
72 | MRPL37 C153 (UniProt Q9BZE1) | 0.0206
73 | MTHFSD C113 (UniProt Q2M296) | 0.0614
74 | MYO19 C678 (UniProt Q96H55) | 0.0125

Compound: ClCC(=O)N[C@H]1CCCc2ccccc12
Experiment: as above
Settings: 50 µM; treatment time: 4 h; cell line lysate: HEK293T
Experimental: as §1

Row | Target | log2 mean competition ratio
75 | MYCBP2 C2951 (UniProt O75592) | -0.0658
76 | NAA15 C721 | 0.23
77 | NAA20 C9 (UniProt P61599) | -0.00764
78 | NAP1L1 C88 | 0.305
79 | MSH3 C803 (UniProt P20585) | 0.797
80 | MRPL38 C143 (UniProt Q96DV4) | 0.463
81 | MTR C378 (UniProt Q99707) | -0.00332
82 | NAA15 C309 | 0.131
83 | MTFMT C365 (UniProt Q96DP5) | 0.189
84 | MYCBP2 C2169 (UniProt O75592) | 0.0907
85 | MYH10 C823 (UniProt P35580) | 0.596
86 | MSH6 C579 (UniProt P52701) | -0.151
87 | NAPA C84 (UniProt P54920) | 0.022
88 | MYH9 C988 (UniProt P35579) | -0.398
89 | MRPL2 C213 (UniProt Q5T653) | 0.351
90 | MVK C339 (UniProt Q03426) | 0.57
91 | MTMR3 C632 (UniProt Q13615) | -0.455
92 | MYBL2 C69 (UniProt P10244) | 0.162
93 | MSH6 C1129 (UniProt P52701) | 0.0744

Row | Target | log2 mean competition ratio
94 | MTMR1_(C170,C170,C176,C176) (UniProt Q13613) | -0.696
95 | MTMR1 C58 (UniProt Q13613) | 0.0771
96 | MYCBP2 C2044 (UniProt O75592) | 0.306
97 | NADSYN1 C531 (UniProt Q6IA69) | -0.104
98 | MYCBP2 C1475 (UniProt O75592) | 0.113
99 | MYSM1 C169 (UniProt Q5VVJ2) | -0.0816
100 | MTMR14 C429 (UniProt Q8NCE2) | 0.0695
101 | MTCL1 C1628 (UniProt Q9Y4B5) | 0.063
102 | MTBP C691 | -0.155
103 | MYO1B C103 (UniProt O43795) | -0.0554
104 | MYO6 C610 (UniProt Q9UM54) | -0.0828
105 | MTG2 C206 (UniProt Q9H4K7) | -0.269
106 | NACC1 C416 (UniProt Q96RE7) | 0.137
107 | NAMPT C39 | 0.341
108 | MTARC2 C299 | 0.247
109 | MRPL37 C153 (UniProt Q9BZE1) | -0.178
110 | MTHFSD C113 (UniProt Q2M296) | 0.0253
111 | MYO19 C678 (UniProt Q96H55) | -0.308
